The labels stand for the following.
B1: Q8R1B4 (protein, UniProt Q8R1B4 1-911, looked up)
chain: MSRFFTTGSDSESESSLSGEELVTKPVSGNYGKQPLLLSEDEEDTKRVVRSAKDKRFEELTNLIRTIRNAMKIRDVTKCLEEFELLGKAYGKAKSIVDKEGVPRFYIRILADLEDYLNELWEDKEGKKKMNKNNAKALSTLRQKIRKYNRDFESHITNYKQNPEQSADEDAEKNEEDSEGSSDEDEDEDGVGNTTFLKKKQESSGESRKFHKKMEDDDEDSEDSEDEEWDTSSTSSDSDSEEEEGKQTVLASKFLKKAPTTEEDKKAAEKKREDKAKKKHDRKSKRLDEEEEDNEGGEWERVRGGVPLVKEKPKMFAKGTEITHAVVIKKLNEILQVRGKKGTDRATQIELLQLLVQIAAENNLGVGVIVKIKFNIIASLYDYNPNLATYMKPEMWQMCLDCINELMDTLVAHSNIFVGENILEESENLHNFDQPLRVRGCILTLVERMDEEFTKIMQNTDPHSQEYVEHLKDEAQVCAIIERVQRYLEEKGTTEEICQIYLRRILHTYYKFDYKAHQRQLTPPEGSSKSEQDQAENEGEDSAVLMERLCKYIYAKDRTDRIRTCAILCHIYHHALHSRWYQARDLMLMSHLQDNIQHADPPVQILYNRTMVQLGICAFRQGLTKDAHNALLDIQSSGRAKELLGQGLLLRSLQERNQEQEKVERRRQVPFHLHINLELLECVYLVSAMLLEIPYMAAHESDARRRMISKQFHHQLRVGERQPLLGPPESMREHVVAASKAMKMGDWKTCHSFIINEKMNGKVWDLFPEADKVRTMLVRKIQEESLRTYLFTYSSVYDSISMETLSDMFELDLPTVHSIISKMIINEELMASLDQPTQTVVMHRTEPTAQQNLALQLAEKLGSLVENNERVFDHKQGTYGGYFRDQKDGYRKNEGYMRRGGYRQQQSQTAY
modifications: full-length
B2: P28665 (protein, UniProt P28665 1-1476, looked up)
chain: MWKSRRAQLCLFSVLLAFLHSASLLNGDSKYMVLVPSQLYTETPEKICLHLYQLNETVTVTASLVSQSGRKNLFDELVLDKDLFQCVSFIIPRLSSSDEEDFLYVDIKGPTHEFSKRKAVLVKNKESVVFVQTDKPVYKPGQSVKFRVVSMDKMLRPLNELLPLAYIEDPKKNRIMQWRDIKTENGLKQMSFSLAAEPIQGPYKIVVHKESGEKEEHSFTVMEFVLPRFNVDLKVPNAMSVNDEVLSVTACGKYTYGKPVPGHVKINVCRETETGCREVNSQLDNNGCSTQEVNITELQSKKRNYEVQLFHVNATVTEEGTGLEFSRSGTTKIERITNKLIFLKADSHFRHGIPFFVKVRLVDIKGDPIPNEKVFIKAQELSYTSATTTDQHGLAEFSIDTTCISGSSLHIKVNHKEEDSCSYFYCMEERHASAKHVAYAVYSLSKSYIYLDTETSSILPCNQIHTVQAHFILKGDLGVLKELIFYYLVMAQGSIIQTGNHTHQVEPGEAPVKGKFALEIPVEFSMVPMAKMLIYTILPDGEVIADSVNFEIEKCLRNKVDLRFSTSQSLPASQTRLQVTASPQSLCGLRAVDQSVLLLKPESELSPSWIYNLPGMQQNKFVPSSRLSEDQEDCILYSSWLAEKHTNLVPHGTEKDVYRYVEDMGLTAFTNLMIKLPIICFDYGMVPISAPRVEFDLAFTPEISWSLRTTLSKRPEEPPRKDPSSNDPLTETIRKYFPETWVWDIVTVNSTGLAEVEMTVPDTITEWKAGALCLSNDTGLGLSSVVPLQAFKPFFVEVSLPYSVVRGEAFMLKATVMNYLPTSMQMSVQLEASPDFTAVPVGDDQDSYCLSANGRHTSSWLVTPKSLGNVNFSVSAEAQQSSEPCGSEVATVPETGRKDTVVKVLIVEPEGIKQEHTFSSLFCASDAEISEKMSLVLPPTVVKDSARAHFSVMGDILSSAIRNTQNLLHMPYGCGEQNMVLFAPNIYVLKYLNETQQLTQKIKTKALGFLRAGYQRELNYKHKDGSYSAFGDQNGEREGNTWLTAFVLKSFAQARAFIFIDESHITHAFTWLSQKQKDNGCFRSSGSLFNNAMKGGVDDEMTLSAYITMALLESSLPATHPVVSKALSCLESSWKTIEQERNASFVYTKALMAYAFALAGNQNKRDEILKSLDEEAIKENNSIHWKRPQKSRKSEHHLYKPQASSAEVEMNAYVVLARLTAQPAPSPEDLTLSMSTIMWLTKQQNSNGGFSSTQDTVVALDALSKYGAVTFSRSQKTTLVTIQSTGSFSQKFQVENSNRLLLQQVALPDIPGDYTISVSGEGCVYAQTMLRYNMHLEKQLSAFAIWVQTVPLTCNNPKGHNSFQISLEISYTGSRPASNMVIADVKMLSGFIPLKPTVKKLERLEHVSRTEVSNNNVLIYLDQVTNQTLAFSFIIQQDIPVRNLQPAIVKVYDYYETDEMAFAEYSSPCSTDKQNV
modifications: full-length
B3: P24549 (protein, UniProt P24549 1-501, looked up)
chain: MSSPAQPAVPAPLADLKIQHTKIFINNEWHNSVSGKKFPVLNPATEEVICHVEEGDKADVDKAVKAARQAFQIGSPWRTMDASERGRLLNKLADLMERDRLLLATMEALNGGKVFANAYLSDLGGCIKALKYCAGWADKIHGQTIPSDGDIFTYTRREPIGVCGQIIPWNFPMLMFIWKIGPALSCGNTVVVKPAEQTPLTALHLASLIKEAGFPPGVVNIVPGYGPTAGAAISSHMDVDKVAFTGSTQVGKLIKEAAGKSNLKRVTLELGGKSPCIVFADADLDIAVEFAHHGVFYHQGQCCVAASRIFVEESVYDEFVKRSVERAKKYVLGNPLTPGINQGPQIDKEQHDKILDLIESGKKEGAKLECGGGRWGNKGFFVQPTVFSNVTDEMRIAKEEIFGPVQQIMKFKSVDDVIKRANNTTYGLAAGLFTKDLDKAITVSSALQAGVVWVNCYMMLSAQCPFGGFKMSGNGRELGEHGLYEYTELKTVAMKISQKNS
modifications: full-length
B4: P31254 (protein, UniProt P31254 1-1058, looked up)
chain: MSSSVLSKKRKVSGPDSSLDSSWSPTYSVMFGVPPGPTNEMSKNKEMDIDESLYSRQLYVLGHEAMKHLQASSVLISGLQGLGVEIAKNIILGGVKAVTLHDQGIAQWADLSSQFCLREEDIGKNRAEISQPRLAELNSYVPVFAYTGPLIEEFLSGFQVVVLTNTPLEYQLQVGEFCHSHGIKLVVADTRGLVGQLFCDFGEEMILTDSNGEQPLSAMVSMITKENPGIVTCLEDSRHGFESGDFISFTEVQGMSELNGIGPIEIKVLGPYTFSICDTSSFSEYIRGGIVSQVKVPRKINFKPLLASLAEPEFVVTDFAKCCHPAQLHIGFQALHQFCTQHSRPPRPHNEEDAEELVTLAQSVNAQALPAVQQDCLDIDLIRKLAYVAAGDLAPMNAFFGGLAAQEVMKACSGKFMPIRQWLYFDALECLPEHRVAFMEDKCLPHQNRYDGQVAVFGSDLQEKLGKQKYFLVGAGAIGCELLKNFAMIGLGCGEDGEITVTDMDTIEKSNLNRQFLFRPWDITKLKSETAAAAVRDINPHIRIFSHQNRVGPETEHVYDDDFFQKLDGVANALDNVDARLYVDRRCVYYRKPLLESGTLGTKGNVQVVVPFLTESYSSSQDPPEKSIPICTLKNFPNAIEHTVQWARDEFEGLFKQSAENVNQYLTDPKFMERTLQLAGTQPLEVLEAIHCSLVLQRPQTWADCVTWAYQHWHTQYSHNIQQLLHNFPPAQLTSSGALFWSGPKRCPHPLTFDINNPLHLDYVMAAANLFAQTYGLGGSQDCAVVAKLLQSLPVPKFAPKSGIRIHVSEQELQSTSATTIDDSHLEELKTALPTPDKLLGFKMYPIDFEKDDDSNFHMDFIVAASNLRAENYGISPADRHKSKLIAGKIIPAIATTTSAIVGLVCLELYKVVQGHQQLESYKNSFINLALPLFSFSAPLAPECHQYYDQEWTLWDRFDVQGLQPSGEEMTLKQFLDYFKTEHKLEVIMLSQGVSMLYSVFMPASKLKERLDQPMTEIVSCVSKQKLGHHVKSLVFELCCNSDSGDDIEVPYVRYIIR
modifications: full-length
B5: Q9ERK4 (protein, UniProt Q9ERK4 1-971, looked up)
chain: MELSDANLQTLTEYLKKTLDPDPAIRRPAEKFLESVEGNQNYPLLLLTLLEKSQDNVIKVCASVTFKNYIKRNWRIVEDEPNKICEADRVAIKANIVHLMLSSPEQIQKQLSDAISIIGREDFPQKWPDLLTEMVNRFQSGDFHVINGVLRTAHSLFKRYRHEFKSNELWTEIKLVLDAFALPLTNLFKATIELCSTHANDASALRILFSSLILISKLFYSLNFQDLPEFFEDNMETWMNNFHTLLTLDNKLLQTDDEEEAGLLELLKSQICDNAALYAQKYDEEFQRYLPRFVTAIWNLLVTTGREVKYDLLVSNAIQFLASVCERPHYKNLFEDQNTLTSICEKVIVPNMEFRAADEEAFEDNSEEYIRRDLEGSDIDTRRRAACDLVRGLCKFFEGPVTGIFSGYVNSMLQEYAKNPSVNWKHKDAAIYLVTSLASKAQTQKHGITQANELVNLTEFFVNHILPDLKSNNVNEFPVLKADGIKYIMIFRNQVPKEHLLVSIPLLISHLEAESIVVHTYAAHALERLFTMRGSNNTTLFTAAEIAPFVEILLTNLFKALTLPGSSENEYIMKAIMRSFSLLQEAIIPYIPTLITQLTQKLLAVSKNPSKPHFNHYMFEAICLSIRITCKANPAAVVNFEEALFLVFTEILQNDVQEFIPYVFQVMSLLLETHKNDIPSSYMALFPHLLQPVLWERTGNIPALVRLLQAFLERGSSTIATAAADKIPGLLGVFQKLIASKANDHQGFYLLNSIIEHMPPESVDQYRKQIFILLFQRLQNSKTTKFIKSFLVFINLYCIKYGALALQEIFDGIQPKMFGMVLEKIIIPEIQKVSGNVEKKICAVGITKLLTECPPMMDTEYTKLWTPLLQSLIGLFELPEDDSIPDEEHFIDIEDTPGYQTAFSQLAFAGKKEHDPVGQMVNNPKIHLAQSLHKLSTACPGRVPSMVSTSLNAEALQYLQGYLQAASVTLL
modifications: full-length
B6: P07759 (protein, UniProt P07759 1-418, looked up)
chain: MAFIVAMGMILMAGICPAVLCFPDGTKEMDIVFHEHQDNGTQDDSLTLASVNTDFAFSLYKKLALKNPDTNIVFSPLSISAALALVSLGAKGKTMEEILEGLKFNLTETPEADIHQGFGNLLQSLSQPEDQDQINIGNAMFIEKDLQILAEFHEKTRALYQTEAFTADFQQPTEAKNLINDYVSNQTQGMIKELISELDERTLMVLVNYIYFKGKWKISFDPQDTFESEFYLDEKRSVKVPMMKMKLLTTRHFRDEELSCSVLELKYTGNASALLILPDQGRMQQVEASLQPETLRKWRKTLFPSQIEELNLPKFSIASNYRLEEDVLPEMGIKEVFTEQADLSGITETKKLSVSQVVHKAVLDVAETGTEAAAATGVIGGIRKAILPAVHFNRPFLFVIYHTSAQSILFMAKVNNPK
modifications: full-length

Six molecules from patent US12378320B2, “Methods for treating pancreatitis” (Cold Spring Harbor Laboratory, priority 2018, dated 2025) can be followed below.

The subject of one data set is CA19-9 modified proteins. Nature of the data set: CA19-9 IP/MS (iTRAQ) of organoid conditioned media after Dox treatment. Further details: species or system mouse. Conditions: A217 (genetic negative) organoids conditioned media, after 8 hours of treatment, CA19-9 IP with 5B1; relative to 17 0H NS19.
On to B1, for which the “17 8H 5B1” value is recorded as 0.914.
For B2, the “17 8H 5B1” value amounted to 0.583.
As for B3, the “17 8H 5B1” value amounted to 5.654.
For the molecule B4, the “17 8H 5B1” value stood at 3.007.
Consider B5, for which the “17 8H 5B1” value was found to be 8.429.
Take B6: the “17 8H 5B1” value was determined as 0.945.

Still in this data set, the particulars now being: A217 (genetic negative) organoids conditioned media, after 8 hours of treatment, CA19-9 IP with NS19-9; relative to 17 0H NS19.
As for B1, the “17 8H NS19” value is on record as 0.281.
Consider B2, for which the “17 8H NS19” value is reported as 0.906.
Consider B3, for which the “17 8H NS19” value worked out at 0.713.
With B4, the “17 8H NS19” value came out at 0.694.
For B5, the “17 8H NS19” value was 0.669.
As for B6, the “17 8H NS19” value is on record as 0.955.

The data set is the same for the next values; noted with them: A217 (genetic negative) organoids conditioned media, before treatment (0H), CA19-9 IP with NS19-9; relative abundance, reference channel.
B1: the “17 0H NS19” value was 1.
Regarding B2, the “17 0H NS19” value worked out at 1.
For B3, the “17 0H NS19” value turned out to be 1.
The same measure, in the same setting: to B4 belongs 1; to B5, 1; to B6, 1.

Staying with this data set, now noted: A220 (C;R^LSL;F) organoids conditioned media, before treatment (0H), CA19-9 IP with 5B1; relative to 17 0H NS19.
In the case of B1, the “20 0H 5B1” value turned out to be 0.96.
Turning to B2, the “20 0H 5B1” value came to 0.447.
For the molecule B3, the “20 0H 5B1” value amounted to 4.672.
Consider B4, for which the “20 0H 5B1” value was 2.462.
With B5, the “20 0H 5B1” value worked out at 5.471.
On the same count and under the same terms, to B6 belongs 0.95.
